The assay addresses T1, ATG18a-GFP (Arabidopsis thaliana) (UniProt Q93VB2).
T1 sequence: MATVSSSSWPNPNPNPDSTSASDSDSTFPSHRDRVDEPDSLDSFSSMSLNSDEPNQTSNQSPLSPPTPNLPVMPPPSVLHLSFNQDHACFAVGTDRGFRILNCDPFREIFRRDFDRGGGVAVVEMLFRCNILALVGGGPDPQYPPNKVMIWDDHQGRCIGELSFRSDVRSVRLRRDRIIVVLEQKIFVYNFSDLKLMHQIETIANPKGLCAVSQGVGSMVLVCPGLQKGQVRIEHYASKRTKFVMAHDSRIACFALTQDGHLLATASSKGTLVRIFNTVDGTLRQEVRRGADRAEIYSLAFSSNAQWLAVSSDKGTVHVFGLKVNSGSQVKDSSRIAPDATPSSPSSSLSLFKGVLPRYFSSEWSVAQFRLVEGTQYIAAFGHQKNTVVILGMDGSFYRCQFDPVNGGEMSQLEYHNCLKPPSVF
Kind of assay: affinity purification with mass spectrometry; immunoprecipitation of ATG18a-GFP with µMACS Anti-GFP MicroBeads from total protein of atg2(p1) plants grown under normal light; lysis buffer 50 mM HEPES-KOH (pH 7.5), 0.15 M NaCl, 0.5% Triton X-100, 0.1% Tween 20; in-gel trypsin digestion …; GFP-expressing atg2(p1) as control; repeated three times.

No constants are given. Whether binding was seen depends on the method and setting. In cells and extracts the contact can be indirect. A yes stands for co-enrichment or nearness to the bait. Other partners may have been found. Sequences can lack the tags named with a protein.

This is an account of results in article PMC9722907.

B1: catalase CAT2 (enzyme, UniProt P25819 1-492)
chain: MDPYKYRPASSYNSPFFTTNSGAPVWNNNSSMTVGPRGPILLEDYHLVEKLANFDRERIPERVVHARGASAKGFFEVTHDISNLTCADFLRAPGVQTPVIVRFSTVIHERGSPETLRDPRGFAVKFYTREGNFDLVGNNFPVFFIRDGMKFPDMVHALKPNPKSHIQENWRILDFFSHHPESLNMFTFLFDDIGIPQDYRHMDGSGVNTYMLINKAGKAHYVKFHWKPTCGVKSLLEEDAIRVGGTNHSHATQDLYDSIAAGNYPEWKLFIQIIDPADEDKFDFDPLDVTKTWPEDILPLQPVGRMVLNKNIDNFFAENEQLAFCPAIIVPGIHYSDDKLLQTRVFSYADTQRHRLGPNYLQLPVNAPKCAHHNNHHEGFMNFMHRDEEVNYFPSRYDQVRHAEKYPTPPAVCSGKRERCIIEKENNFKEPGERYRTFTPERQERFIQRWIDALSDPRITHEIRSIWISYWSQADKSLGQKLASRLNVRPSI
With B1, the binding result was “binds”.

B2: catalase CAT3 (enzyme, UniProt Q42547 1-492)
chain: MDPYKYRPSSAYNAPFYTTNGGAPVSNNISSLTIGERGPVLLEDYHLIEKVANFTRERIPERVVHARGISAKGFFEVTHDISNLTCADFLRAPGVQTPVIVRFSTVVHERASPETMRDIRGFAVKFYTREGNFDLVGNNTPVFFIRDGIQFPDVVHALKPNPKTNIQEYWRILDYMSHLPESLLTWCWMFDDVGIPQDYRHMEGFGVHTYTLIAKSGKVLFVKFHWKPTCGIKNLTDEEAKVVGGANHSHATKDLHDAIASGNYPEWKLFIQTMDPADEDKFDFDPLDVTKIWPEDILPLQPVGRLVLNRTIDNFFNETEQLAFNPGLVVPGIYYSDDKLLQCRIFAYGDTQRHRLGPNYLQLPVNAPKCAHHNNHHEGFMNFMHRDEEINYYPSKFDPVRCAEKVPTPTNSYTGIRTKCVIKKENNFKQAGDRYRSWAPDRQDRFVKRWVEILSEPRLTHEIRGIWISYWSQADRSLGQKLASRLNVRPSI
On to B2, for which the binding entry is reported as “binds”.
